Measurements reported in patent US20230287338A1 (MINERVA BIOTECHNOLOGIES, published 2023).
No constants are given. Whether binding was seen depends on the method and setting. In cells and extracts the contact can be indirect. Some binding calls cover weakened binding; strength is not graded here. For some assays here: Where a sequence is shown, tags or fusion partners need not be part of it.

By UniProt entry, the sequences of proteins in these tests, tags left out. Residues count along the entry.
UniProt Q9Y5B8: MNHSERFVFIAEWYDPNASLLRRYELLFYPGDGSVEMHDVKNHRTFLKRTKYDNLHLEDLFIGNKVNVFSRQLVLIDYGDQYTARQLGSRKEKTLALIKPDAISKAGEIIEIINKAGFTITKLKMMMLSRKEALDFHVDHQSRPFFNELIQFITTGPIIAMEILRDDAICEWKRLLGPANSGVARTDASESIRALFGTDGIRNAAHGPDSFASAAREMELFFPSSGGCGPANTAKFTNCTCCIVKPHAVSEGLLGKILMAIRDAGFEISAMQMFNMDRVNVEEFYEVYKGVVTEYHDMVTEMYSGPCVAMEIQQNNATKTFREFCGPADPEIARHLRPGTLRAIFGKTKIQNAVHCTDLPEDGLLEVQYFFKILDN
UniProt P15531, residues 2-152: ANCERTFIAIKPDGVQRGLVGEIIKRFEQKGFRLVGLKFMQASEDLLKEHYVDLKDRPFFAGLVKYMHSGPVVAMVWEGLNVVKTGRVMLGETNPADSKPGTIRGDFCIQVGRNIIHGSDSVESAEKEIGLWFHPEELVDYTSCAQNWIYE

Tests used:
[1] = biological target: T1, histidine-tagged MUC1* extra cellular domain peptide (His-tagged PSMGFR sequence); experiment: pull-down assay
T1 sequence (peptide): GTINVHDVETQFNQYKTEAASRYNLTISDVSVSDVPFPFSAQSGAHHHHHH

[2] = biological target: T1, histidine-tagged MUC1* extra cellular domain peptide (His-tagged PSMGFR sequence); experiment: pull-down assay, Western blot
[3] = biological target: T1, histidine-tagged MUC1* extra cellular domain peptide (His-tagged PSMGFR sequence); experiment: pull-down from BGO1v lysate on peptide beads, Western blot
[4] = biological target: T1, histidine-tagged MUC1* extra cellular domain peptide (His-tagged PSMGFR sequence); experiment: pull-down on NTA-Ni agarose beads from cell lysates, Western blot
[5] = biological target: T1, histidine-tagged MUC1* extra cellular domain peptide (His-tagged PSMGFR sequence); experiment: pull-down on NTA-Ni magnetic beads from cell lysates, Western blot
[6] = biological target: MUC1* (cleaved form of MUC1, MUC1* growth factor receptor), native (human) (UniProt P15941); experiment: co-immunoprecipitation with Ab-5, Western blot
[7] = biological target: MUC1* (cleaved form of MUC1, MUC1* growth factor receptor), native (human) (UniProt P15941); experiment: co-immunoprecipitation with Ab-5 from cell lysates, Western blot

Measured: binding

NME7 (NM23-H7), native, from human stem cell and cancer cell lysates (from UniProt Q9Y5B8 1-376) (ligand)
not listed: [6] | [7]
binds: all other assays above

NME1 (NM23-H1), native, from human stem cell and cancer cell lysates (from UniProt P15531 2-152) (ligand)
binds: [6] | [7] | [4]
